Measurements taken from PMC8047169.
Results are given in words; binding and its absence hold for the method and conditions named. Sequences can lack the tags named with a protein.

T1: His-CowN (Gluconacetobacter diazotrophicus CowN, His-tagged, refolded, monomeric fraction) (Gluconacetobacter diazotrophicus) (UniProt A9H4F6)
T1 sequence: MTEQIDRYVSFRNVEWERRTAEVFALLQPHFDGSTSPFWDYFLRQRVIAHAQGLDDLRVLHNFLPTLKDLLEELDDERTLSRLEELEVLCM


Experiments:
[1] = molecular target: T1, His-CowN (Gluconacetobacter diazotrophicus CowN, His-tagged, refolded, monomeric fraction) (Gluconacetobacter diazotrophicus); assay: pull-down; His-CowN on Ni-NTA resin, 10 min incubation, three washes; 50 mM Tris pH 8, 60 mM NaCl, 1 mM DT; 2.5 μM MoFeP, 15 μM FeP, 15 μM CowN; nonturnover and turnover conditions with CO; SDS-PAGE; both purified
[2] = molecular target: molybdenum-iron protein (MoFeP) of Gluconacetobacter diazotrophicus Mo-nitrogenase (Gluconacetobacter diazotrophicus); assay: cross-linking; EDC 12.5 mM, 30 min; 50 mM HEPES pH 8, 60 mM NaCl, 5 mM DT; 2.5 μM MoFeP, 15 μM FeP, 15 μM CowN; nonturnover and turnover (5 mM MgCl2, 5 mM ATP) conditions with 0.1 atm CO; SDS-PAGE; both purified

| Molecule | binding [1] | binding [2] |
| --- | --- | --- |
| molybdenum-iron protein (MoFeP) of Gluconacetobacter diazotrophicus Mo-nitrogenase (complex) | no binding (tested: 15 μM CowN, 2.5 μM MoFeP) | – |
| His-CowN (Gluconacetobacter diazotrophicus CowN, His-tagged, refolded, monomeric fraction) (protein, UniProt A9H4F6 1-91) MTEQIDRYVSFRNVEWERRTAEVFALLQPHFDGSTSPFWDYFLRQRVIAHAQGLDDLRVLHNFLPTLKDLLEELDDERTLSRLEELEVLCM | – | no binding (tested: 15 μM CowN, 2.5 μM MoFeP) |
